Laboratory results: PubChem BioAssay AID1259308 (NCATS, 2017)
Purpose: 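Knock-downs that increase output of a recombinant reporter protein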 (primary screen). System: human HEK293 embryonic kidney cells stably expressing firefly luciferase (HEK-CMV-Luc2-Hygro). Reagent: single siRNA against human genes, 0.8 pmol siRNA per well. Timing: 72 h. Measured: 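Reporter luminescence and viable-cell signal on separate replicate plates, given as percent of non-targeting control and median/MAD z-scores, plus per-cell luciferase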. Scale: total luciferase, z-score and total luciferase, % of control: higher = more reporter protein produced. Call rule: 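Active when the median/MAD z-score for overall luciferase is greater than 3; a gene was taken forward for validation with new siRNAs if at least two of its three siRNAs passed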. Calls: active = raised luciferase; inactive = no rise.
The whole screen tested about 59,000 reagents; shown is a random part of them. About 1,510 of all reagents (2.6%) were called active. 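Calls use total luciferase alone and ignore viability, so some active siRNAs may act by altering cell number.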 Reagents against one gene are numbered here. Not all columns of the deposit are shown.

AWAT1 (acyl-CoA wax alcohol acyltransferase 1) #1
- total luciferase, z-score: -0.179
- total luciferase, % of control: 78.3
- Outcome: inactive

AWAT1 (acyl-CoA wax alcohol acyltransferase 1) #2
- total luciferase, z-score: 0.664
- total luciferase, % of control: 95.1
- Outcome: inactive

AWAT1 (acyl-CoA wax alcohol acyltransferase 1) #3
- total luciferase, z-score: -2.13
- total luciferase, % of control: 39.6
- Outcome: inactive

C22orf46P (chromosome 22 open reading frame 46, pseudogene) #1
- total luciferase, z-score: 1.52
- total luciferase, % of control: 112
- Outcome: inactive

C22orf46P (chromosome 22 open reading frame 46, pseudogene) #2
- total luciferase, z-score: 0.707
- total luciferase, % of control: 96
- Outcome: inactive

C22orf46P (chromosome 22 open reading frame 46, pseudogene) #3
- total luciferase, z-score: -0.376
- total luciferase, % of control: 74.4
- Outcome: inactive

BLVRB (biliverdin reductase B) #1
- total luciferase, z-score: -1.29
- total luciferase, % of control: 56.2
- Outcome: inactive

BLVRB (biliverdin reductase B) #2
- total luciferase, z-score: -0.738
- total luciferase, % of control: 67.2
- Outcome: inactive

BLVRB (biliverdin reductase B) #3
- total luciferase, z-score: -0.589
- total luciferase, % of control: 70.2
- Outcome: inactive

RPS16P10 (ribosomal protein S16 pseudogene 10) #1
- total luciferase, z-score: -0.234
- total luciferase, % of control: 77.2
- Outcome: inactive

RPS16P10 (ribosomal protein S16 pseudogene 10) #2
- total luciferase, z-score: -1.05
- total luciferase, % of control: 60.9
- Outcome: inactive

RPS16P10 (ribosomal protein S16 pseudogene 10) #3
- total luciferase, z-score: -0.979
- total luciferase, % of control: 62.4
- Outcome: inactive

LIPK (lipase family member K) #1
- total luciferase, z-score: 0.413
- total luciferase, % of control: 90.1
- Outcome: inactive

LIPK (lipase family member K) #2
- total luciferase, z-score: 0.25
- total luciferase, % of control: 86.9
- Outcome: inactive

LIPK (lipase family member K) #3
- total luciferase, z-score: -0.634
- total luciferase, % of control: 69.3
- Outcome: inactive

The list goes on (4 carried over from the part before).
RPS16P10 (ribosomal protein S16 pseudogene 10) #3
- total luciferase, z-score: -0.979
- total luciferase, % of control: 62.4
- Outcome: inactive

LIPK (lipase family member K) #1
- total luciferase, z-score: 0.413
- total luciferase, % of control: 90.1
- Outcome: inactive

LIPK (lipase family member K) #2
- total luciferase, z-score: 0.25
- total luciferase, % of control: 86.9
- Outcome: inactive

LIPK (lipase family member K) #3
- total luciferase, z-score: -0.634
- total luciferase, % of control: 69.3
- Outcome: inactive

PCARE (photoreceptor cilium actin regulator) #1
- total luciferase, z-score: 0.214
- total luciferase, % of control: 86.1
- Outcome: inactive

PCARE (photoreceptor cilium actin regulator) #2
- total luciferase, z-score: -0.931
- total luciferase, % of control: 63.4
- Outcome: inactive

PCARE (photoreceptor cilium actin regulator) #3
- total luciferase, z-score: 5
- total luciferase, % of control: 181
- Outcome: active

PARP16 (poly(ADP-ribose) polymerase family member 16) #1
- total luciferase, z-score: -1.63
- total luciferase, % of control: 49.5
- Outcome: inactive

PARP16 (poly(ADP-ribose) polymerase family member 16) #2
- total luciferase, z-score: -0.0643
- total luciferase, % of control: 80.6
- Outcome: inactive

PARP16 (poly(ADP-ribose) polymerase family member 16) #3
- total luciferase, z-score: -0.288
- total luciferase, % of control: 76.1
- Outcome: inactive

SLC11A1 #1
- total luciferase, z-score: -0.739
- total luciferase, % of control: 67.2
- Outcome: inactive

SLC11A1 #2
- total luciferase, z-score: 2.6
- total luciferase, % of control: 134
- Outcome: inactive

SLC11A1 #3
- total luciferase, z-score: 3.74
- total luciferase, % of control: 156
- Outcome: active

DEPTOR (DEP domain containing MTOR interacting protein) #1
- total luciferase, z-score: 0.329
- total luciferase, % of control: 88.4
- Outcome: inactive

DEPTOR (DEP domain containing MTOR interacting protein) #2
- total luciferase, z-score: -1.18
- total luciferase, % of control: 58.4
- Outcome: inactive

DEPTOR (DEP domain containing MTOR interacting protein) #3
- total luciferase, z-score: 0.321
- total luciferase, % of control: 88.3
- Outcome: inactive

GRK7 (G protein-coupled receptor kinase 7) #1
- total luciferase, z-score: -0.958
- total luciferase, % of control: 62.8
- Outcome: inactive

GRK7 (G protein-coupled receptor kinase 7) #2
- total luciferase, z-score: 0.241
- total luciferase, % of control: 86.7
- Outcome: inactive

GRK7 (G protein-coupled receptor kinase 7) #3
- total luciferase, z-score: 1.67
- total luciferase, % of control: 115
- Outcome: inactive

RSAD1 (radical S-adenosyl methionine domain containing 1) #1
- total luciferase, z-score: 0.0302
- total luciferase, % of control: 82.5
- Outcome: inactive

RSAD1 (radical S-adenosyl methionine domain containing 1) #2
- total luciferase, z-score: -1.02
- total luciferase, % of control: 61.6
- Outcome: inactive

RSAD1 (radical S-adenosyl methionine domain containing 1) #3
- total luciferase, z-score: 1.09
- total luciferase, % of control: 104
- Outcome: inactive
